Measured values reported in PubChem BioAssay AID252 (DTP/NCI, 2004).
The list is a part of this screen's results and no random one: it is rich in T/C values a quarter to a half above the control, in often repeated tests (any T/C) and in doses without a T/C. Other doses and runs of a compound stand elsewhere. T/C: endpoint of the treated group in % of that of the vehicle group. Some doses have a count of surviving animals in place of a T/C: the source holds a T/C of zero for them, seemingly a mark for toxic or unscored doses. Some survivor counts are full or nearly so, which does not show that the dose was tolerated: the source hardly ever lists a survival T/C far under the control, and the zero likely stands for such cases as well. Survivors were counted at the toxicity check, usually on the fifth day, unless a day is given; later deaths do not show. Schedules are NCI's codes, taken here to give the interval after Q, in days (D) or hours (H), and the number of doses after X. Some schedule codes hold Z or #, which are not explained here. Where survival is the endpoint, this PubChem deposit counts one and a half times the control or more as active, and values a quarter to a half above the control carry no call in these data; other NCI protocols may use other cut-offs. Some entries hold several experiments; their values stand side by side, smallest first. Some T/C values are followed by the survivors on the day toxicity was checked, most often the fifth; without a count, all were alive then.

Test system: BDF1 mice, intracerebral L1210 leukemia, survival T/C
Experiment: NCI In Vivo Anticancer Drug Screen. Data for tumor model L1210 Leukemia (intracerebral) in B6D2F1 (BDF1) mice
Settings: higher T/C = longer survival
In short: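 Mice carrying transplanted tumour were dosed with compound; survival was recorded and expressed as treated-group value (T) divided by vehicle-control value (C).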

O=NN(CCCl)C(=O)NC(Cc1ccccc1)C(=O)O (configuration not stated)
survivor count (T/C endpoint: mean survival time, dose: 168.0 mg/kg/injection, schedule: Q01DX001 (ip), vehicle: gum acacia): 9 of 10

O=C1CN=C(c2ccc[nH]2)c2cc(Cl)ccc2N1
survivor count (T/C endpoint: median survival time, dose: 50.0 mg/kg/injection, schedule: Q01DX009 (ip), vehicle: other): 5 of 8

CCC(=O)NC1=C(N2CC2C)C(=O)C(NC(=O)CC)=C(N2CC2C)C1=O (configuration not stated)
survivor count (T/C endpoint: mean survival time, dose: 50.0 mg/kg/injection, schedule: Q01DX009 (ip), vehicle: Klucel (hydroxypropylcellulose) (HPC)): 1 of 6

CCN(CC)CCNc1ccc(CO)c2sc3ccccc3c(=O)c12
survivor count (T/C endpoint: mean survival time, dose: 128.0 mg/kg/injection, schedule: Q01DX005 (ip), vehicle: saline): 10 of 10 | survivor count (T/C endpoint: mean survival time, dose: 256.0 mg/kg/injection, schedule: Q01DX005 (ip), vehicle: saline): 4 of 10

CN(N=O)C(=O)Nc1ccc(NC(=O)N(C)N=O)cc1
survivor count (T/C endpoint: mean survival time, dose: 360.0 mg/kg/injection, schedule: Q01DX001 (ip), vehicle: carboxymethylcellulose (CMC)): 5 of 10 | survivor count (T/C endpoint: mean survival time, dose: 720.0 mg/kg/injection, schedule: Q01DX001 (ip), vehicle: carboxymethylcellulose (CMC)): 0 of 10

Nc1nc2n[nH]nc2c(=O)[nH]1
T/C (T/C endpoint: mean survival time, dose: 39.0 mg/kg/injection, schedule: Q01DX015 (ip), vehicle: water): 125 % of control | T/C (T/C endpoint: mean survival time, dose: 61.0 mg/kg/injection, schedule: Q01DX015 (ip), vehicle: water): 139 % of control [8 of 9 alive]

CCCCn1cnc2c(SC3CCCC3)ncnc21
T/C (T/C endpoint: mean survival time, dose: 1000.0 mg/kg/injection, schedule: Q01DX001 (ip), vehicle: carboxymethylcellulose (CMC)): 125 % of control [5 of 6 alive]

OC(CBr)C(O)C(O)C(O)CBr (configuration not stated)
T/C (T/C endpoint: mean survival time, dose: 200.0 mg/kg/injection, schedule: Q01DX009 (ip), vehicle: steroid suspending solution): 128 % of control | survivor count (T/C endpoint: mean survival time, dose: 400.0 mg/kg/injection, schedule: Q01DX009 (ip), vehicle: steroid suspending solution): 1 of 8

CNC(=O)N(C)N=O
T/C (T/C endpoint: mean survival time, dose: 250.0 mg/kg/injection, schedule: Q01DX001 (ip), vehicle: carboxymethylcellulose (CMC)): 138 % of control | T/C (T/C endpoint: mean survival time, dose: 450.0 mg/kg/injection, schedule: Q01DX001 (ip), vehicle: carboxymethylcellulose (CMC)): 136 % of control [9 of 10 alive] | survivor count (T/C endpoint: mean survival time, dose: 562.0 mg/kg/injection, schedule: Q01DX001 (ip), vehicle: carboxymethylcellulose (CMC)): 1 of 10 | survivor count (T/C endpoint: mean survival time, dose: 900.0 mg/kg/injection, schedule: Q01DX001 (ip), vehicle: carboxymethylcellulose (CMC)): 0 of 10 | survivor count (T/C endpoint: mean survival time, dose: 1800.0 mg/kg/injection, schedule: Q01DX001 (ip), vehicle: carboxymethylcellulose (CMC)): 0 of 10

CC(Cl)CNC(=O)N(CC(C)Cl)N=O (configuration not stated)
T/C (T/C endpoint: mean survival time, dose: 750.0 mg/kg/injection, schedule: Q01DX001 (ip), vehicle: carboxymethylcellulose (CMC)): 133 % of control [5 of 6 alive]

O=NN(CCCl)C(=O)NC1CSCSC1
T/C (T/C endpoint: mean survival time, dose: 6.7 mg/kg/injection, schedule: Q01DX001 (ip), vehicle: other): 132 % of control | T/C (T/C endpoint: mean survival time, dose: 10.0 mg/kg/injection, schedule: Q01DX001 (ip), vehicle: other): 138 and 142 % of control | T/C (T/C endpoint: mean survival time, dose: 16.5 mg/kg/injection, schedule: Q01DX001 (ip), vehicle: other): 135 and 148 % of control | T/C (T/C endpoint: mean survival time, dose: 33.0 mg/kg/injection, schedule: Q01DX001 (ip), vehicle: other): 222 [8 of 10 alive], 286, 290, 324 % of control

N[C@H](C(=O)O)[C@H]1ON=C(Cl)[C@@H]1O
T/C (T/C endpoint: mean survival time, dose: 32.0 mg/kg/injection, schedule: Q01DX009 (ip), vehicle: saline): 129 % of control | T/C (T/C endpoint: mean survival time, dose: 64.0 mg/kg/injection, schedule: Q01DX009 (ip), vehicle: saline): 135 % of control | T/C (T/C endpoint: mean survival time, dose: 128.0 mg/kg/injection, schedule: Q01DX009 (ip), vehicle: saline): 134 % of control | T/C (T/C endpoint: mean survival time, dose: 256.0 mg/kg/injection, schedule: Q01DX009 (ip), vehicle: saline): 140 % of control [7 of 8 alive] | T/C (T/C endpoint: median survival time, dose: 16.0 mg/kg/injection, schedule: Q01DX009 (ip), vehicle: saline): 127 % of control | T/C (T/C endpoint: median survival time, dose: 32.0 mg/kg/injection, schedule: Q01DX009 (ip), vehicle: saline): 128 % of control [7 of 8 alive] | T/C (T/C endpoint: median survival time, dose: 64.0 mg/kg/injection, schedule: Q01DX009 (ip), vehicle: saline): 127 % of control | T/C (T/C endpoint: median survival time, dose: 128.0 mg/kg/injection, schedule: Q01DX009 (ip), vehicle: saline): 145 % of control

CC12CC3(C)CC(C)(C1)CC(NC(=O)N(CCF)N=O)(C2)C3
T/C (T/C endpoint: mean survival time, dose: 124.0 mg/kg/injection, schedule: Q01DX001 (ip), vehicle: other): 127 % of control | T/C (T/C endpoint: mean survival time, dose: 187.0 mg/kg/injection, schedule: Q01DX001 (ip), vehicle: other): 137 % of control [9 of 10 alive] | survivor count (T/C endpoint: mean survival time, dose: 280.0 mg/kg/injection, schedule: Q01DX001 (ip), vehicle: other): 0 of 10

CN(Cc1cnc2nc(N[Si](C)(C)C)nc(N[Si](C)(C)C)c2n1)c1ccc(C(=O)NC(CCC(=O)O[Si](C)(C)C)C(=O)O[Si](C)(C)C)cc1 (configuration not stated)
T/C (T/C endpoint: mean survival time, dose: 1.0 mg/kg/injection, schedule: Q01DX009 (ip), vehicle: saline): 148 % of control | T/C (T/C endpoint: mean survival time, dose: 2.0 mg/kg/injection, schedule: Q01DX009 (ip), vehicle: Klucel (hydroxypropylcellulose) (HPC)): 131 % of control | survivor count (T/C endpoint: mean survival time, dose: 8.0 mg/kg/injection, schedule: Q01DX009 (ip), vehicle: Klucel (hydroxypropylcellulose) (HPC)): 4 of 6 | survivor count (T/C endpoint: mean survival time, dose: 8.0 mg/kg/injection, schedule: Q01DX009 (ip), vehicle: saline): 6 of 6 | survivor count (T/C endpoint: mean survival time, dose: 16.0 mg/kg/injection, schedule: Q01DX009 (ip), vehicle: Klucel (hydroxypropylcellulose) (HPC)): 4 of 6

CS(=O)(=O)Nc1ccc(Nc2c3ccccc3nc3cc([N+](=O)[O-])ccc23)cc1
survivor count (T/C endpoint: mean survival time, dose: 10.0 mg/kg/injection, schedule: Q01DX009 (ip), vehicle: Klucel (hydroxypropylcellulose) (HPC)): 9 of 10 | survivor count (T/C endpoint: mean survival time, dose: 100.0 mg/kg/injection, schedule: Q01DX001 (ip), vehicle: saline): 6 of 10

COc1ccc(NC(=O)N(CCCl)N=O)cc1
survivor count (T/C endpoint: mean survival time, dose: 79.2 mg/kg/injection, schedule: Q01DX001 (ip), vehicle: carboxymethylcellulose (CMC)): 10 of 10 | survivor count (T/C endpoint: mean survival time, dose: 158.4 mg/kg/injection, schedule: Q01DX001 (ip), vehicle: carboxymethylcellulose (CMC)): 1 of 10

c1cc2n(n1)CCN2
survivor count (T/C endpoint: median survival time, dose: 300.0 mg/kg/injection, schedule: Q01DX009 (ip), vehicle: water): 4 of 8 | survivor count (T/C endpoint: median survival time, dose: 400.0 mg/kg/injection, schedule: Q01DX009 (ip), vehicle: water): 1 of 8 | T/C (T/C endpoint: median survival time, dose: 400.0 mg/kg/injection, schedule: Q04DX003 (ip), vehicle: water): 135 % of control | survivor count (T/C endpoint: median survival time, dose: 600.0 mg/kg/injection, schedule: Q04DX003 (ip), vehicle: water): 5 of 8 | T/C (T/C endpoint: median survival time, dose: 800.0 mg/kg/injection, schedule: Q04DX003 (ip), vehicle: water): 134 % of control [6 of 8 alive]

C[n+]1ccc(Nc2ccc(NC(=O)c3ccc(Nc4cc[n+](C)c5ccc(N)cc45)cc3N)cc2)cc1
survivor count (T/C endpoint: mean survival time, dose: 16.0 mg/kg/injection, schedule: Q01DX009 (ip), vehicle: water): 6 of 10

O=NN(CCCl)C(=O)NC1CS(=O)(=O)CS(=O)(=O)C1
T/C (T/C endpoint: mean survival time, dose: 25.0 mg/kg/injection, schedule: Q01DX001 (ip), vehicle: other): 125 % of control | T/C (T/C endpoint: mean survival time, dose: 37.0 mg/kg/injection, schedule: Q01DX001 (ip), vehicle: other): 138 % of control

O=NN(CCCl)C(=O)NC1Cc2ccccc2C1
T/C (T/C endpoint: mean survival time, dose: 125.0 mg/kg/injection, schedule: Q01DX001 (ip), vehicle: other): 127 % of control

CSc1ncnc2c1ncn2C1OC(CO)C(O)C1O (configuration not stated)
survivor count (T/C endpoint: mean survival time, dose: 75.0 mg/kg/injection, schedule: Q01DX Z (ip), vehicle: saline): 5 of 10 | survivor count (T/C endpoint: mean survival time, dose: 100.0 mg/kg/injection, schedule: Q01DX Z (ip), vehicle: saline): 4 of 10

CCS(=O)(=O)Nc1cccc(Nc2c3cccc(C)c3nc3c(C)cccc23)c1OC
survivor count (T/C endpoint: mean survival time, dose: 50.0 mg/kg/injection, schedule: Q01DX009 (ip), vehicle: water): 9 of 10 | survivor count (T/C endpoint: mean survival time, dose: 100.0 mg/kg/injection, schedule: Q01DX009 (ip), vehicle: water): 7 of 10

O=NN(CCCl)C(=O)NC1CCSc2ccccc21 (configuration not stated)
T/C (T/C endpoint: mean survival time, dose: 18.0 mg/kg/injection, schedule: Q01DX001 (ip), vehicle: other): 131 and 147 % of control | survivor count (T/C endpoint: mean survival time, dose: 200.0 mg/kg/injection, schedule: Q01DX001 (ip), vehicle: other): 6 of 10

S=c1nc[nH]c2nc[nH]c12
T/C (T/C endpoint: mean survival time, dose: 10.0 mg/kg/injection, schedule: Q01DX009 (ip), vehicle: alkali diluted with saline): 126 % of control | T/C (T/C endpoint: mean survival time, dose: 20.0 mg/kg/injection, schedule: Q01DX009 (ip), vehicle: alkali diluted with saline): 136 % of control | T/C (T/C endpoint: mean survival time, dose: 40.0 mg/kg/injection, schedule: Q01DX009 (ip), vehicle: alkali diluted with saline): 141 % of control | T/C (T/C endpoint: median survival time, dose: 800.0 mg/kg/injection, schedule: Q01DX001 (oral), vehicle: saline with Tween-80): 125 % of control | T/C (T/C endpoint: median survival time, dose: 1600.0 mg/kg/injection, schedule: Q01DX001 (oral), vehicle: saline with Tween-80): 129 % of control
